Data published in paper PMC11523043.
Results are given in words; binding and its absence hold for the method and conditions named. In cells and extracts the contact can be indirect. Some entries that bind do so weakly or less than the wild type. Sequences can lack the tags named with a protein.

How the values were obtained:
Test in all cases: co-IP; lysates of cells (HEK293, HeLa or H1299) transfected with the Flag-tagged bait, anti-Flag (M2) agarose, 4°C for 4 hours, 50 mmol/L Tris-HCl pH 8.0, 0.5% Nonidet P-40, 150 mmol/L NaCl; endogenous partner detected by IB; for Flag-USP36 also in the presence of 100 μg/mL RNase A and 100 U/mL RNase T1
[1] = target: T1, Flag-Las1L^1-613 (UniProt Q9Y4W2)
T1 sequence: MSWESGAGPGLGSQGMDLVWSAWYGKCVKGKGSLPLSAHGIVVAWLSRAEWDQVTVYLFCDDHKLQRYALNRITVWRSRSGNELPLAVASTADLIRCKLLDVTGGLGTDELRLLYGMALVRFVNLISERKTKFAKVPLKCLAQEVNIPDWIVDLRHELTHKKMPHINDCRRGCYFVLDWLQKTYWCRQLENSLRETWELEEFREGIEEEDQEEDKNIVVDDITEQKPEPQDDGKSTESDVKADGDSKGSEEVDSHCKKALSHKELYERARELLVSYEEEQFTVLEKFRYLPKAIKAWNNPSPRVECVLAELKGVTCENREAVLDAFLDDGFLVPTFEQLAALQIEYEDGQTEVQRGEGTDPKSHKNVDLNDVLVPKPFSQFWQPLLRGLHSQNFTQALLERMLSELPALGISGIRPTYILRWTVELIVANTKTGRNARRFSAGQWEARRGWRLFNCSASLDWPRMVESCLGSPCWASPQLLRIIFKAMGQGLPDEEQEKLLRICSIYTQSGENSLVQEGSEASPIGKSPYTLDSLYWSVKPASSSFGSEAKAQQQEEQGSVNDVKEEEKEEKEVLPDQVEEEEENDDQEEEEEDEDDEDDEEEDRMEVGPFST

[2] = target: T2, Flag-tagged Las1L (UniProt Q9Y4W2)
T2 sequence: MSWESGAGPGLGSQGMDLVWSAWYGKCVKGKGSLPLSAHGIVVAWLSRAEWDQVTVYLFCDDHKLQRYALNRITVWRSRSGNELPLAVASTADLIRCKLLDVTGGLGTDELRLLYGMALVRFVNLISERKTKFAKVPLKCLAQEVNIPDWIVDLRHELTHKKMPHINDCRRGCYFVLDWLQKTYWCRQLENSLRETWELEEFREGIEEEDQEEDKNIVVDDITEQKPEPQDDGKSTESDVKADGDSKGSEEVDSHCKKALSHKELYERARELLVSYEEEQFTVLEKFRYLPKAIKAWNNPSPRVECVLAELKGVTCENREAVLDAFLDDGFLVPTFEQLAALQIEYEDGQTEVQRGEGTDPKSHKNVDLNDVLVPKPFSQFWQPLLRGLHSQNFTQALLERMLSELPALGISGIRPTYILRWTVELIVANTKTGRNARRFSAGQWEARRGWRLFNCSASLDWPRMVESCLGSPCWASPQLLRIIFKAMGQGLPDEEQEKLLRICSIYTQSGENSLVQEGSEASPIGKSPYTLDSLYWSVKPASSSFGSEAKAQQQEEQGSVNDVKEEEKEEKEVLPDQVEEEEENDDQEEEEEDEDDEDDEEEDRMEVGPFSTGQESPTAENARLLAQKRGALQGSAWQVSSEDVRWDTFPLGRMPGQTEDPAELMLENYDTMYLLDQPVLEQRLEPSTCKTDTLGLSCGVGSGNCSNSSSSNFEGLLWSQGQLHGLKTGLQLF

[3] = target: T3, Flag-Nol9 (human) (UniProt Q5SY16)
T3 sequence: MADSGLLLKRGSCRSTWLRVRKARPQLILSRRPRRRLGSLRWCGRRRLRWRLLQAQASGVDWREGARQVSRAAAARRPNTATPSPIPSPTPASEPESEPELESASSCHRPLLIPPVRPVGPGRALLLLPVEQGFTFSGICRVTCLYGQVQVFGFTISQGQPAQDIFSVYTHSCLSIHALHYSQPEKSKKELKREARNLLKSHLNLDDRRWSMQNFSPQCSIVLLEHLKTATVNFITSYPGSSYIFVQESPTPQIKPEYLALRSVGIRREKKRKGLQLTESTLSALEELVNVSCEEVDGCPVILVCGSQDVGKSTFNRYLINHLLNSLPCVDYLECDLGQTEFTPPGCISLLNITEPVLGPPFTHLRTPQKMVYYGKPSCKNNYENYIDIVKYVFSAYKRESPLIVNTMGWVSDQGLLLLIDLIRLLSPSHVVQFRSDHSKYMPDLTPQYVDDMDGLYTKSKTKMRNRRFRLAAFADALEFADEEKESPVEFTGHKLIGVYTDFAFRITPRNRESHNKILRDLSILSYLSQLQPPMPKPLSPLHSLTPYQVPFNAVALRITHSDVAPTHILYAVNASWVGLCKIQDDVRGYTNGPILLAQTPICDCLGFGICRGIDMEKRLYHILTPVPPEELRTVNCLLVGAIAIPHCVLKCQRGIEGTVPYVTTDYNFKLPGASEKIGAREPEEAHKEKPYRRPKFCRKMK

[4] = target: T4, Flag-Nol9^1-479 (human) (UniProt Q5SY16)
T4 sequence: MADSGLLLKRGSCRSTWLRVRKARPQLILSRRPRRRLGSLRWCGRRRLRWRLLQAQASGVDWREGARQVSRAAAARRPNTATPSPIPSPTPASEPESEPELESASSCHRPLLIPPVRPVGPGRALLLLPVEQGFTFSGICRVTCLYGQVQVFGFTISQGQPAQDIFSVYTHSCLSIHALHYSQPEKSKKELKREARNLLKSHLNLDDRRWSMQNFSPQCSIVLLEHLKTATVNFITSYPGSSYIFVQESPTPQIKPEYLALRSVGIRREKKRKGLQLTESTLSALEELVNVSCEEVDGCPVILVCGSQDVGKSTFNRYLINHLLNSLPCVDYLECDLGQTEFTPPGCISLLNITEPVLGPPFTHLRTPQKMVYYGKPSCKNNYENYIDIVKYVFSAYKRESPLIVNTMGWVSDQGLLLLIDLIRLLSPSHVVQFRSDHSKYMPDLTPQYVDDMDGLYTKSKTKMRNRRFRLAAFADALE

- binding [1]: binds
- binding [2]: binds
- binding [3]: binds
- binding [4]: binds
B1: endogenous USP36 (enzyme, UniProt Q9P275 1-1123)
chain: MPIVDKLKEALKPGRKDSADDGELGKLLASSAKKVLLQKIEFEPASKSFSYQLEALKSKYVLLNPKTEGASRHKSGDDPPARRQGSEHTYESCGDGVPAPQKVLFPTERLSLRWERVFRVGAGLHNLGNTCFLNATIQCLTYTPPLANYLLSKEHARSCHQGSFCMLCVMQNHIVQAFANSGNAIKPVSFIRDLKKIARHFRFGNQEDAHEFLRYTIDAMQKACLNGCAKLDRQTQATTLVHQIFGGYLRSRVKCSVCKSVSDTYDPYLDVALEIRQAANIVRALELFVKADVLSGENAYMCAKCKKKVPASKRFTIHRTSNVLTLSLKRFANFSGGKITKDVGYPEFLNIRPYMSQNNGDPVMYGLYAVLVHSGYSCHAGHYYCYVKASNGQWYQMNDSLVHSSNVKVVLNQQAYVLFYLRIPGSKKSPEGLISRTGSSSLPGRPSVIPDHSKKNIGNGIISSPLTGKRQDSGTMKKPHTTEEIGVPISRNGSTLGLKSQNGCIPPKLPSGSPSPKLSQTPTHMPTILDDPGKKVKKPAPPQHFSPRTAQGLPGTSNSNSSRSGSQRQGSWDSRDVVLSTSPKLLATATANGHGLKGNDESAGLDRRGSSSSSPEHSASSDSTKAPQTPRSGAAHLCDSQETNCSTAGHSKTPPSGADSKTVKLKSPVLSNTTTEPASTMSPPPAKKLALSAKKASTLWRATGNDLRPPPPSPSSDLTHPMKTSHPVVASTWPVHRARAVSPAPQSSSRLQPPFSPHPTLLSSTPKPPGTSEPRSCSSISTALPQVNEDLVSLPHQLPEASEPPQSPSEKRKKTFVGEPQRLGSETRLPQHIREATAAPHGKRKRKKKKRPEDTAASALQEGQTQRQPGSPMYRREGQAQLPAVRRQEDGTQPQVNGQQVGCVTDGHHASSRKRRRKGAEGLGEEGGLHQDPLRHSCSPMGDGDPEAMEESPRKKKKKKRKQETQRAVEEDGHLKCPRSAKPQDAVVPESSSCAPSANGWCPGDRMGLSQAPPVSWNGERESDVVQELLKYSSDKAYGRKVLTWDGKMSAVSQDAIEDSRQARTETVVDDWDEEFDRGKEKKIKKFKREKRRNFNAFQKLQTRRNFWSVTHPAKAASLSYRR
